According to the supplement of paper PMC10849652:
Some of the results follow.

Protein sequences, listed by entry. Tags and fused reporters are not part of them. Lines headed by an entry give the natural chain unless they say otherwise; changes in a name come on top.
UniProt Q15788: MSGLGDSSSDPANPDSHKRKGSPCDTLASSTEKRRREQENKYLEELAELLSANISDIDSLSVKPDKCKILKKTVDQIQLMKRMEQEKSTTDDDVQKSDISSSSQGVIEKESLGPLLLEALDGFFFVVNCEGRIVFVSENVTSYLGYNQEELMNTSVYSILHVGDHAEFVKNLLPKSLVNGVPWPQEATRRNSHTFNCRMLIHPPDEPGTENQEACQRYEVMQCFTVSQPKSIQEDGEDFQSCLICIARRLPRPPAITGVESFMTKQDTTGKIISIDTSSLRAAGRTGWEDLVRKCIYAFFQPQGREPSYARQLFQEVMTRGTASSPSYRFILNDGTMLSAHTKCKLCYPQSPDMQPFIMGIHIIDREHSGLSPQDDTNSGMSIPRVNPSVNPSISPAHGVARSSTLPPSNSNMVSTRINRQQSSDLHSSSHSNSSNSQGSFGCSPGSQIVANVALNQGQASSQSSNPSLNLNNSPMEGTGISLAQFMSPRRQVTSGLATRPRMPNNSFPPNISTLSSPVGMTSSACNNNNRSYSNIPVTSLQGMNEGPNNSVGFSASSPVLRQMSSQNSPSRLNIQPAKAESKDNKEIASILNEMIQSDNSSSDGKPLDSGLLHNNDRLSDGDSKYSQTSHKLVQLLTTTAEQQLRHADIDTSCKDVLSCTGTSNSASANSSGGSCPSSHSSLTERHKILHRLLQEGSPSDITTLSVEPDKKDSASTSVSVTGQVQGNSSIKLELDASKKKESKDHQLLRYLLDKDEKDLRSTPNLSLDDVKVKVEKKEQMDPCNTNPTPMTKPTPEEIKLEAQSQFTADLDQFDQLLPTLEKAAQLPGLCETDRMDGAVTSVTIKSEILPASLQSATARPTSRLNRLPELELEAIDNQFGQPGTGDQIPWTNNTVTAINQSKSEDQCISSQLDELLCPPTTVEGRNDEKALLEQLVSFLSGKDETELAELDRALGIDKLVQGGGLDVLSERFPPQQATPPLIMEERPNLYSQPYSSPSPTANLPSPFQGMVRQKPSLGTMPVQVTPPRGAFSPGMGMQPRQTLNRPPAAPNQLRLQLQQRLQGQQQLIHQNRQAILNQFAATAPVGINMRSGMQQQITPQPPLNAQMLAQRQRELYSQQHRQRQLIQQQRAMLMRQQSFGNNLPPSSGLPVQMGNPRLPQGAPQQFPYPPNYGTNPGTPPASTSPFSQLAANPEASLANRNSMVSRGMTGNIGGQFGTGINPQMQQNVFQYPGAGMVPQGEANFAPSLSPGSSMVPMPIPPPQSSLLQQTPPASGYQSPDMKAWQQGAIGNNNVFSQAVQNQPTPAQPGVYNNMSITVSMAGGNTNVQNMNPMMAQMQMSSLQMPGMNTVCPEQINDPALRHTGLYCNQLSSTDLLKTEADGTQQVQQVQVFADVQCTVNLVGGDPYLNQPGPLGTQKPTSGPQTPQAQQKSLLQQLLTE
UniProt Q6ZNJ1: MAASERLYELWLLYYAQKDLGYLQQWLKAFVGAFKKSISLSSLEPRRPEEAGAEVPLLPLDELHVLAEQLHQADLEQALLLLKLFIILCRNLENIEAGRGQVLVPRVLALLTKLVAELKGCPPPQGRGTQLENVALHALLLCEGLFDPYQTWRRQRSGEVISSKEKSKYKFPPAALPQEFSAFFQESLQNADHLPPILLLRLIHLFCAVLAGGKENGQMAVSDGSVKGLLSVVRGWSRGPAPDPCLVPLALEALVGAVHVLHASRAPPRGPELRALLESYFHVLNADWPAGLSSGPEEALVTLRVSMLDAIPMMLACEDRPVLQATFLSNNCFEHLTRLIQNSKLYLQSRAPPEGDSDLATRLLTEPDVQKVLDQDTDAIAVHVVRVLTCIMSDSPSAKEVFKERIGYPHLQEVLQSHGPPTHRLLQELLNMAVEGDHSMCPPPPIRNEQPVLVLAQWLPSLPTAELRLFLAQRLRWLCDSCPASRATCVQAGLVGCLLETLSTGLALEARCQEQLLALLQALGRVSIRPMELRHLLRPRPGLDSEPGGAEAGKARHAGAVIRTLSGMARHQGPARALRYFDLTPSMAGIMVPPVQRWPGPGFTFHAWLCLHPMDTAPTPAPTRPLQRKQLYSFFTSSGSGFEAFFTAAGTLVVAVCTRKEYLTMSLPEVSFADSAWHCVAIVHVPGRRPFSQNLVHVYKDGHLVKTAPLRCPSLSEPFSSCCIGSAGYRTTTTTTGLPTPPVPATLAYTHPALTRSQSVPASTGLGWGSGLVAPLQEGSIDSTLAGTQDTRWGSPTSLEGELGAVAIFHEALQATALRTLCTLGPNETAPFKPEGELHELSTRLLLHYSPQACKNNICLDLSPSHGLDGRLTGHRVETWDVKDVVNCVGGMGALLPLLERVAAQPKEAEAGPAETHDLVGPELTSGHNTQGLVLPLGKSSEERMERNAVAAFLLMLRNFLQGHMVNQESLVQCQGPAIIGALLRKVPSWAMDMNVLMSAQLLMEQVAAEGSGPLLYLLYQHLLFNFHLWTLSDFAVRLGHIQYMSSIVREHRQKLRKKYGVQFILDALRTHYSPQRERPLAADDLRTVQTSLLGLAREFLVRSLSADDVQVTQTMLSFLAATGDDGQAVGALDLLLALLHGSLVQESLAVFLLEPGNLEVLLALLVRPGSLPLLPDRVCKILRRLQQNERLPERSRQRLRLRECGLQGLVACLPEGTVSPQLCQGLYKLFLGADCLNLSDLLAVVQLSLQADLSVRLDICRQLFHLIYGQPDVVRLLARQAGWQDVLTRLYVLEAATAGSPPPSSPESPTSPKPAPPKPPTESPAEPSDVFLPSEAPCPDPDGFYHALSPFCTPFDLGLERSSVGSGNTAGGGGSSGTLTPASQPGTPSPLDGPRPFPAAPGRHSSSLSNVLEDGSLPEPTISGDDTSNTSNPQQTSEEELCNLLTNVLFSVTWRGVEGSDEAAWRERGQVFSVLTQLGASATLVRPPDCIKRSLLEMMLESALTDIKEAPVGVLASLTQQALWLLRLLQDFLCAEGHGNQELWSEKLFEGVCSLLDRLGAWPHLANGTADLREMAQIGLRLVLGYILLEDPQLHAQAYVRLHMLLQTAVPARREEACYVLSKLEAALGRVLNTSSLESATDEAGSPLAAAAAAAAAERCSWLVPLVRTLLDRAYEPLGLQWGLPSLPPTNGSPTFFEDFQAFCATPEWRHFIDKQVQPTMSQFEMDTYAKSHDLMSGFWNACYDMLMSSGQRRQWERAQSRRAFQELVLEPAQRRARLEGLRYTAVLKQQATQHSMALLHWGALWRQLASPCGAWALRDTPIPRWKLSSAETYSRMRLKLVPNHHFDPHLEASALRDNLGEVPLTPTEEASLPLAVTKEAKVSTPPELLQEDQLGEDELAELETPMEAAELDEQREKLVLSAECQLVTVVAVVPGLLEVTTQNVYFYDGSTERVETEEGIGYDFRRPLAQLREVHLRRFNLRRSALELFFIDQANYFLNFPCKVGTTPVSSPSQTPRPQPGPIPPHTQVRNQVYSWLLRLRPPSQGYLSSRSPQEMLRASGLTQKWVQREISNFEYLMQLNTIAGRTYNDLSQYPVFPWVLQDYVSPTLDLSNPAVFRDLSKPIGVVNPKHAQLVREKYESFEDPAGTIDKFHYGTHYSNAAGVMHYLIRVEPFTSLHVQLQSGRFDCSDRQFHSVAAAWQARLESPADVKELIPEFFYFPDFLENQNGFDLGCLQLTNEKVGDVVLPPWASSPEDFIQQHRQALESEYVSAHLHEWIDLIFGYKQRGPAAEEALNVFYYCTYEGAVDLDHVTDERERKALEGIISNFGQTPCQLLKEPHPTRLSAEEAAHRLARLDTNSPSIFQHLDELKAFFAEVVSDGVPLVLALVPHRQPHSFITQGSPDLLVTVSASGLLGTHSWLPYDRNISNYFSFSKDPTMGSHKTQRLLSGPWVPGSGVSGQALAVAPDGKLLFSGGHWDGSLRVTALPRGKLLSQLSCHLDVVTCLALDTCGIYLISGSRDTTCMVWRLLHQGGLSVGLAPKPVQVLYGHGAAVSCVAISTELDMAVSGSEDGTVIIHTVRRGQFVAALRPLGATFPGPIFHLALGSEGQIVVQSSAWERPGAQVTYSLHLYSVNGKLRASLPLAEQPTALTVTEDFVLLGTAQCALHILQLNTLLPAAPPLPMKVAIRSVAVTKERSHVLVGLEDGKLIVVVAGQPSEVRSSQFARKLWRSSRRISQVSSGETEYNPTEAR
UniProt Q13772: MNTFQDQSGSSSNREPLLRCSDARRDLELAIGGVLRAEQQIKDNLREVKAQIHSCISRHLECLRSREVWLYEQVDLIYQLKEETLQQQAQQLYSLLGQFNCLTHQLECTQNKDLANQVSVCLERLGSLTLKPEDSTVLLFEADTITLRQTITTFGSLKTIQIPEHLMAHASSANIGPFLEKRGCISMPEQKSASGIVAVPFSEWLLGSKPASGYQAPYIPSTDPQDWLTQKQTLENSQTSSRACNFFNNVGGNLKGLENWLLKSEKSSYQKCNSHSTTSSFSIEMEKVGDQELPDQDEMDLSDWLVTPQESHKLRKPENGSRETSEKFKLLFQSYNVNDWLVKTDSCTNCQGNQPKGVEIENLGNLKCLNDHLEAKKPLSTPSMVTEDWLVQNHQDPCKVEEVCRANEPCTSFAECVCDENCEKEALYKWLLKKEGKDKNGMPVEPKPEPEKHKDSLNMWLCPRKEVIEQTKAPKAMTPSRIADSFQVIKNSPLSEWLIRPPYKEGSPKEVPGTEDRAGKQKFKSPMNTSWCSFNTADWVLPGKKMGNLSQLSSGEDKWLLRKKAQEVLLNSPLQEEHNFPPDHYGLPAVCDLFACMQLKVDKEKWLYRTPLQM
UniProt B2RBV5: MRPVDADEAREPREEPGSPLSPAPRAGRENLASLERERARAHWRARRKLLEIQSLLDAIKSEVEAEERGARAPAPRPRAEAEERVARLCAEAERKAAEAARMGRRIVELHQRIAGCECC
UniProt Q92597: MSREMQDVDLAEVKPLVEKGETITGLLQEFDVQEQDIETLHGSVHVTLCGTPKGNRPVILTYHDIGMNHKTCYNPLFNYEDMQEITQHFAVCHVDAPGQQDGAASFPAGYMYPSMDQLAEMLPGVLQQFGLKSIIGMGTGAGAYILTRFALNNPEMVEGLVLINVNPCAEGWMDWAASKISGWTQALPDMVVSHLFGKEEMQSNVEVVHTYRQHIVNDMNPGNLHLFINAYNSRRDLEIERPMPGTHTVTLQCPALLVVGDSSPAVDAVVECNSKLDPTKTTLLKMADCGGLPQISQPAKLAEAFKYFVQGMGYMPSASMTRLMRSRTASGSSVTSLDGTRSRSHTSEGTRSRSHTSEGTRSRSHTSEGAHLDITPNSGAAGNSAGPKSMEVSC
UniProt P49321, whole entry, looked up: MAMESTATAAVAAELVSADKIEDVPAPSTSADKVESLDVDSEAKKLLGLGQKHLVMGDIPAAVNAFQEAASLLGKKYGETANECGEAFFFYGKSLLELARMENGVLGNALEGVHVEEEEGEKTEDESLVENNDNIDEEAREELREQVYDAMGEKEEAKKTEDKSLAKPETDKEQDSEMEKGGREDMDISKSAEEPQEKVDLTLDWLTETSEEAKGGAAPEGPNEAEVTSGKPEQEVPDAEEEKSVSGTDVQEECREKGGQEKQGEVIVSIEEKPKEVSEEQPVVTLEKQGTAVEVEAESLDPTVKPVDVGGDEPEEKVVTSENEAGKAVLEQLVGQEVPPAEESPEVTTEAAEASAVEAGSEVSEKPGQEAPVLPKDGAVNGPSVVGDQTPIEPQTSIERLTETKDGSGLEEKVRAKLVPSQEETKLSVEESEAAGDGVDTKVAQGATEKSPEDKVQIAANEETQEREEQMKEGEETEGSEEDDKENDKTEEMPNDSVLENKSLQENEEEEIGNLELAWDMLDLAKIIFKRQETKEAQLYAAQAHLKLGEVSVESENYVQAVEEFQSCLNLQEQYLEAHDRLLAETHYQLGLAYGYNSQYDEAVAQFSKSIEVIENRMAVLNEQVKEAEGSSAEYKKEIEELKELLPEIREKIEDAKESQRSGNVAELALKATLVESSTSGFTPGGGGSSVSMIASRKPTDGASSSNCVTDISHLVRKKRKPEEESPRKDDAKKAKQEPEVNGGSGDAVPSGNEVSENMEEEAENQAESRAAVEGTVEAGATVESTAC

Tests used:
Experiment in all cases: log2 fold change, soluble protein after heating vs DMSO (PISA); higher = thermal stabilisation; K562 cells, 10 uM, 30 min; active = over 0.2 and 3.5 SD of the protein, either way, in both replicates (recomputed)
[1] = compound: CC1=C(C=C(C=C1)NC(=O)C2=CC(=CC=C2)N(C)C)NC(=O)C3=CC=C(C=C3)O
Procedure, shortened: (§1)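 Values are thermal stability changes relative to control samples and are taken from duplicates. They are stated as log2 fold changes. Before quantification by TMTpro 16plex LC-MS/MS with equalised channel sums, K562 cells at 2×10^6 cells/mL were treated with 10 μM compound for 30 min, heated in aliquots for 3 min across 48°C-58°C, pooled, extracted in PBS with 0.5% NP-40 at 4°C, and centrifuged at 21,000xg for 90 min to give the soluble supernatant.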

Nexturastat A = compound: CCCCN(Cc1ccc(C(=O)NO)cc1)C(=O)Nc1ccccc1 [Nexturastat A]
Procedure, shortened: as §1

vemurafenib = compound: CCCS(=O)(=O)Nc1ccc(F)c(C(=O)c2c[nH]c3ncc(-c4ccc(Cl)cc4)cc23)c1F [vemurafenib]
Procedure, shortened: as §1

[2] = compound: CCCc1cc(C)[nH]c(=O)c1CNC(=O)c1cc(-c2ccnc(N3CCN(C)CC3)c2)cc2c1cnn2C(C)C
Procedure, shortened: as §1

givinostat = compound: CCN(CC)Cc1ccc2cc(COC(=O)Nc3ccc(C(=O)NO)cc3)ccc2c1 [givinostat]
Procedure, shortened: as §1

barasertib = compound: CCN(CCCOc1ccc2c(Nc3cc(CC(=O)Nc4cccc(F)c4)[nH]n3)ncnc2c1)CCOP(=O)(O)O [barasertib]
Procedure, shortened: as §1

[3] = compound: CC[C@@H]1C(=O)N(C)c2cnc(Nc3ccc(C(=O)NC4CCN(C)CC4)cc3OC)nc2N1C1CCCC1
Procedure, shortened: as §1

[4] = compound: CC[C@H](C)N1C=C(C2=C(C=C(C=C21)C3=CN=C(C=C3)N4CCNCC4)C(=O)NCC5=C(C=C(NC5=O)C)C)C
Procedure, shortened: as §1

epoxomicin = compound: CC[C@H](C)[C@@H](C(=O)N[C@@H]([C@@H](C)O)C(=O)N[C@@H](CC(C)C)C(=O)[C@]1(CO1)C)NC(=O)[C@H]([C@@H](C)CC)N(C)C(=O)C [epoxomicin]
Procedure, shortened: as §1

[5] = compound: CCn1c(C(=O)N(C2CC2)C2CC2)cc2c3c(ncn3C)c(Nc3cc(C)n(C)n3)nc21
Procedure, shortened: as §1

[6] = compound: CN(C)CC(=O)Nc1ccc2[nH]c(=O)c3ccccc3c2c1
Procedure, shortened: as §1

rosiglitazone = compound: CN(CCOC1=CC=C(C=C1)C[C@H]2C(=O)NC(=O)S2)C3=CC=CC=N3 (racemic) [rosiglitazone]
Procedure, shortened: as §1

[7] = compound: CN1C2=C(C3=C1C(=O)N(N=C3)CC4=CC(=CC=C4)N)SC(=C2)S(=O)C
Procedure, shortened: as §1

[8] = compound: CC1=CC=C(C=C1)SC2=C3C=C(SC3=CN=C2)C(=O)N
Procedure, shortened: as §1

[9] = compound: CC1=NC(=CC=C1)C2=C(N=C(N2)C(C)(C)C)C3=CC4=NC=CN=C4C=C3
Procedure, shortened: as §1

[10] = compound: CCCS(=O)(=O)Nc1ccc(F)c(C(=O)c2c[nH]c3ncc(Cl)cc23)c1F
Procedure, shortened: as §1

volasertib = compound: CC[C@@H]1C(=O)N(C)c2cnc(Nc3ccc(C(=O)N[C@H]4CC[C@H](N5CCN(CC6CC6)CC5)CC4)cc3OC)nc2N1C(C)C [volasertib]
Procedure, shortened: as §1

[11] = compound: CCn1cc(-c2ccnc3[nH]c(-c4cccc(CN(C)C)c4)cc23)c(-c2ccc(NC(=O)N(C)C)cc2)n1
Procedure, shortened: as §1

[12] = compound: CN1CCC(CNc2ccc3ncc(-c4cccc(OC(F)(F)F)c4)n3n2)CC1
Procedure, shortened: as §1

[13] = compound: CC1=C(C=C(C=C1)NC(=O)C2=CC(=CC=C2)C(C)(C)C#N)NC3=CC4=C(C=C3)N=CN(C4=O)C
Procedure, shortened: as §1

Measured: log2 fold change

NCOA1 (UniProt Q15788)
inactive: [1] 0.02 | Nexturastat A -0.245 | vemurafenib -0.061 | [2] -0.007 | givinostat -0.023 | barasertib 0.044 | [3] 0.002 | [4] 0.058 | epoxomicin 0.053 | [5] -0.004 | [6] -0.041 | rosiglitazone 0.096 | [7] -0.033

NCKAP5L (UniProt Q9HCH0)
inactive: [1] 0.011 | [8] 0.006 | [9] 0.161 | vemurafenib -0.112 | [10] 0.366 | [2] -0.165 | volasertib -0.206 | [6] 0.266 | [7] -0.162

NBEAL2 (UniProt Q6ZNJ1)
inactive: [1] 0.04 | [9] -0.274 | [2] -0.035 | givinostat 0.211 | [3] -0.03 | [5] -0.018 | [11] 0.05 | [12] -0.179

NA, A0A494C071
inactive: [9] 0.011 | Nexturastat A -0.081 | vemurafenib -0.142 | [2] -0.159 | barasertib 0.043 | [4] 0.38 | epoxomicin -0.11 | [11] 0.189 | [6] -0.122 | [7] -0.028
active: [3] -1.54 | [12] -1.73

NCOA4 isoform 4 (UniProt Q13772)
inactive: [1] 0.116 | [11] 0.04 | [12] -0.093

NA (UniProt B2RBV5)
active: epoxomicin 0.593
inactive: [13] -0.022 | [8] -0.245 | Nexturastat A 0.292 | [10] 0.005 | [2] 0.021 | barasertib 0.002 | [3] 0.135 | volasertib 0.163 | [4] 0.049 | [11] 0.128 | [12] -0.08

NDRG2 (UniProt G3V392)
inactive: [13] -0.04 | [8] 0.183 | [9] -0.216 | Nexturastat A -0.114 | [10] -0.248 | [2] 0.02 | barasertib 0.134 | volasertib -0.105 | epoxomicin 0.042 | rosiglitazone 0.016

NDRG1 (UniProt Q92597)
inactive: [8] 0.093 | [10] 0.015 | givinostat 0.041 | volasertib -0.07 | [5] -0.05

2 successive entries already listed, quoted:
NCOA1 (UniProt Q15788)
inactive: [1] 0.02 | Nexturastat A -0.245 | vemurafenib -0.061 | [2] -0.007 | givinostat -0.023 | barasertib 0.044 | [3] 0.002 | [4] 0.058 | epoxomicin 0.053 | [5] -0.004 | [6] -0.041 | rosiglitazone 0.096 | [7] -0.033

NCKAP5L (UniProt Q9HCH0)
inactive: [1] 0.011 | [8] 0.006 | [9] 0.161 | vemurafenib -0.112 | [10] 0.366 | [2] -0.165 | volasertib -0.206 | [6] 0.266 | [7] -0.162

Further results follow:

NASP isoform 2 (UniProt P49321)
inactive: [2] 1.06
